# The list shows a part of the results.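 Rule for the calls: active = dose-dependent thermal stabilisation significant by F-test of dose-response against flat model at 10% FDR; inactive = not significant.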
# Protein sequences, listed by entry. Tags and fused reporters are not part of them. Lines headed by an entry give the natural chain unless they say otherwise; changes in a name come on top.
# UniProt O75884: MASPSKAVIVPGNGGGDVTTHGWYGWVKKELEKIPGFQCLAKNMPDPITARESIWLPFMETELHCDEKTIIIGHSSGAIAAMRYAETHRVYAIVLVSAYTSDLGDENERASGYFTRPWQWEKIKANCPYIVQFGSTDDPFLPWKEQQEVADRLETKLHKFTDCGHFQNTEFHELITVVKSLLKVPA
# UniProt P25789: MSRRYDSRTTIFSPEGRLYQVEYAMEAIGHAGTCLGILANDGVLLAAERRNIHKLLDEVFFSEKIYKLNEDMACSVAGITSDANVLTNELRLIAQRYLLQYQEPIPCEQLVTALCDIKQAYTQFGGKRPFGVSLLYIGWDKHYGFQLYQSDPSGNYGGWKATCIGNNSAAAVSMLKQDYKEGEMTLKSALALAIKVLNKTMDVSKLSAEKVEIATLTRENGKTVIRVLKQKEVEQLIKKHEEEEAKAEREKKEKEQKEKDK
# UniProt Q5JS54: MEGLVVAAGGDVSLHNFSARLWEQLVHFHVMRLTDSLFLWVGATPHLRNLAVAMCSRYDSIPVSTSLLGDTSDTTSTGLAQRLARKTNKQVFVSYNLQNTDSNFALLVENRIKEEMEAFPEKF
# UniProt Q7Z6E9: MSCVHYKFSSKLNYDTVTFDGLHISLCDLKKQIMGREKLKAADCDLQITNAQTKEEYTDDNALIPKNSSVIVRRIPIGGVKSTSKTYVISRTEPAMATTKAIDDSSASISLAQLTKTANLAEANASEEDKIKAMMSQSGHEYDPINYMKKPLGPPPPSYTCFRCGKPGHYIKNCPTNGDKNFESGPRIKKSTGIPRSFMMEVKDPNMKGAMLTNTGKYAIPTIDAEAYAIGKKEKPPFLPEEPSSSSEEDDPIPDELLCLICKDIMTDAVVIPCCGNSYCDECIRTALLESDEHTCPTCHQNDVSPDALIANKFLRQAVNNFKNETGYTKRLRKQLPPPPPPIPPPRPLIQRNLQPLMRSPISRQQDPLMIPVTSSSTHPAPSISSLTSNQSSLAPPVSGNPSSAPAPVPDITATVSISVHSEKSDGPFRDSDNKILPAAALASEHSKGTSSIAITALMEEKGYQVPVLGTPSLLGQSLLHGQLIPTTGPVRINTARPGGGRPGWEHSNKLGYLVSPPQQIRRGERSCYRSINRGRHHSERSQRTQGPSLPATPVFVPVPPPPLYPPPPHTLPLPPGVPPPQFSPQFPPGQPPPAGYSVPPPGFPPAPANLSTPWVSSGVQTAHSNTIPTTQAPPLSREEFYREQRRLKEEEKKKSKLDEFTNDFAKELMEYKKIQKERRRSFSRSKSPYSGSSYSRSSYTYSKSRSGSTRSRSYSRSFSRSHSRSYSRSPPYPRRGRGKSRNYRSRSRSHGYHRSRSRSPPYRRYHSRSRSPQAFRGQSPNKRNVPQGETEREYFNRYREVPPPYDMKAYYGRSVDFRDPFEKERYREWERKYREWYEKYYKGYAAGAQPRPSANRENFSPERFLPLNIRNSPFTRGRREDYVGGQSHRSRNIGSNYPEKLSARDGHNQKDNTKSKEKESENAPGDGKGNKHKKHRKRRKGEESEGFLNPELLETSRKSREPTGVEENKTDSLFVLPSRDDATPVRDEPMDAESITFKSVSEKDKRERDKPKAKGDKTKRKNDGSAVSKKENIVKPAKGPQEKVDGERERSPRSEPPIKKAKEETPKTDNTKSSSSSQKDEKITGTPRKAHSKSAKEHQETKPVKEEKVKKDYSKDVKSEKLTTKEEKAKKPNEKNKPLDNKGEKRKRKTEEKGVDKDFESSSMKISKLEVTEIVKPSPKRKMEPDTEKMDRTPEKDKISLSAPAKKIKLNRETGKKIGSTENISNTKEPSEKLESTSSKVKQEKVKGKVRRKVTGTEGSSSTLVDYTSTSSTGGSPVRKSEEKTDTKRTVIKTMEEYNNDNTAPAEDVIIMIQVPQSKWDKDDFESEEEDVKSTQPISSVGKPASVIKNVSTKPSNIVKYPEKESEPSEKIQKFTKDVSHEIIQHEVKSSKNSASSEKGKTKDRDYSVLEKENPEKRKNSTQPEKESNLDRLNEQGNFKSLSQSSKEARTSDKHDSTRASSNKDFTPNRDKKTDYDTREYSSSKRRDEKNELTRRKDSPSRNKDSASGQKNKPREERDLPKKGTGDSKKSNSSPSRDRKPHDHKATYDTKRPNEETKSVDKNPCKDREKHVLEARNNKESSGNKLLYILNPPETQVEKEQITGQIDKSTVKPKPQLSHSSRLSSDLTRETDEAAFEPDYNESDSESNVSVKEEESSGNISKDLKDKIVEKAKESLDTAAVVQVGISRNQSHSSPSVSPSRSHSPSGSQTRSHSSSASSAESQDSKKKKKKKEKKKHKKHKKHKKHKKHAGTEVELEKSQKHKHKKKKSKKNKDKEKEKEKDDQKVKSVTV
# UniProt Q8WUD1: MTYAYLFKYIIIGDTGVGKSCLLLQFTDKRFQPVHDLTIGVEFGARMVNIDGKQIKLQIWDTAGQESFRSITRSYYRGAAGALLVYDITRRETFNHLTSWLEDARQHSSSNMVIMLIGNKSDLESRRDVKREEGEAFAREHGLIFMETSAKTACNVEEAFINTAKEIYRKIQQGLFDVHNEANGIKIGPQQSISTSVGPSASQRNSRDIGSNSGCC
# UniProt Q8WU10: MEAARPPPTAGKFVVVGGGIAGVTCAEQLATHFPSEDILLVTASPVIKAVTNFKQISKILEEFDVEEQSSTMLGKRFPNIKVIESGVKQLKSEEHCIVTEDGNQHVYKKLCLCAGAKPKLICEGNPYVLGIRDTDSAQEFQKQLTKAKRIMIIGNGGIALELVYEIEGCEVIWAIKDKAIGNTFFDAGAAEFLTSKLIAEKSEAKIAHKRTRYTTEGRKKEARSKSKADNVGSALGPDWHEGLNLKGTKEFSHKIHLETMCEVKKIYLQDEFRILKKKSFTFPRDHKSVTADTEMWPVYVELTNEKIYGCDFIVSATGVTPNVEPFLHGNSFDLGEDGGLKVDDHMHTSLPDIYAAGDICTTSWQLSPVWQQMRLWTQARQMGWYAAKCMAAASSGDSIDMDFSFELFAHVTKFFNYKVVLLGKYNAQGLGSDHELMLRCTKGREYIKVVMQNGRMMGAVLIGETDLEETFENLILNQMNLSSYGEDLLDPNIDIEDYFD
# UniProt P54727: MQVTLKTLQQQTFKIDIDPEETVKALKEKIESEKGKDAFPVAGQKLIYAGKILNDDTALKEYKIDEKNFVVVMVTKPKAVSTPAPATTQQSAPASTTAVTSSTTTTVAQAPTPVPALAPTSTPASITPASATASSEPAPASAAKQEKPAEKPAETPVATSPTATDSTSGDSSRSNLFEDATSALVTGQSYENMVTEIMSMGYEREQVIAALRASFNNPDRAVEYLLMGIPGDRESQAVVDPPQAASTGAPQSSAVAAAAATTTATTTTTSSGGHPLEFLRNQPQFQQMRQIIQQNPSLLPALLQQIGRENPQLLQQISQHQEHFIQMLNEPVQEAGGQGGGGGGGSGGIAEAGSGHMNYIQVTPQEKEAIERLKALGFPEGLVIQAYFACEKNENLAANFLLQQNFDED
# UniProt Q96PM5: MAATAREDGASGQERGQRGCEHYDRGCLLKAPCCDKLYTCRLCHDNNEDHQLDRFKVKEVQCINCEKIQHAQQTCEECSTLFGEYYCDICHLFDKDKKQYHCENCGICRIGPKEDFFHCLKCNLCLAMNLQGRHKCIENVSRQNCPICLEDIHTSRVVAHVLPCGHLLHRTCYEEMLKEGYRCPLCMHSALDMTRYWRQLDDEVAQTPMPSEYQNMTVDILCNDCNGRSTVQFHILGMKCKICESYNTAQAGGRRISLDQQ
# UniProt Q8N8N7: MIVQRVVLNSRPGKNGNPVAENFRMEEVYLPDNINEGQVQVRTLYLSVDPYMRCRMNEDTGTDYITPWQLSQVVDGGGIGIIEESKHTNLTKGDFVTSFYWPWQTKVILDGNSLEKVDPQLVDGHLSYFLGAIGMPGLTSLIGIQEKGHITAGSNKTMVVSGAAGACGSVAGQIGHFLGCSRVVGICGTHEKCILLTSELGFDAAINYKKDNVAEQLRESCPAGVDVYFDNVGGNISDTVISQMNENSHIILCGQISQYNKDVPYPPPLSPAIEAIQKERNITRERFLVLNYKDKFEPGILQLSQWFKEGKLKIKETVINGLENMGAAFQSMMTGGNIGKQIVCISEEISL
# UniProt P20340: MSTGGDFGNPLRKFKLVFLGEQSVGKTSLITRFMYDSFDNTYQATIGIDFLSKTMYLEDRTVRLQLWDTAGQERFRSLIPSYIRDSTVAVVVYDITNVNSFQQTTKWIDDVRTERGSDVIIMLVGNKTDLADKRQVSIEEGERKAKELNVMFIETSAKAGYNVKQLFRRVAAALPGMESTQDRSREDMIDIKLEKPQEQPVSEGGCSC
# UniProt P61026: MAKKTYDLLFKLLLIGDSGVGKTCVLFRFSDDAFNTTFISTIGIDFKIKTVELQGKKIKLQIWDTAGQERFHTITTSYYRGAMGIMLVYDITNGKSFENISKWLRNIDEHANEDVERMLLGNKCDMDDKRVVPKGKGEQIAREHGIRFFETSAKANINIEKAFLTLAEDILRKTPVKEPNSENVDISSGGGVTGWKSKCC
# UniProt P10644, whole entry: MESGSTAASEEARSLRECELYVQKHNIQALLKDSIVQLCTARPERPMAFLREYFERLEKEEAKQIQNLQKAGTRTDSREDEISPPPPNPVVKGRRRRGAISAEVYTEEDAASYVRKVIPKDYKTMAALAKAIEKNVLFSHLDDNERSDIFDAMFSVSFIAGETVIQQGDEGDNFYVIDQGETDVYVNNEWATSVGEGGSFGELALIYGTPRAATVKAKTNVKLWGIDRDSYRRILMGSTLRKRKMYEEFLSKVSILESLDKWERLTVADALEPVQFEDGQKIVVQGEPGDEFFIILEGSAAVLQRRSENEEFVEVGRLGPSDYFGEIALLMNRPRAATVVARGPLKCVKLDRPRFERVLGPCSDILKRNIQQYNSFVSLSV
# UniProt Q99460, whole entry: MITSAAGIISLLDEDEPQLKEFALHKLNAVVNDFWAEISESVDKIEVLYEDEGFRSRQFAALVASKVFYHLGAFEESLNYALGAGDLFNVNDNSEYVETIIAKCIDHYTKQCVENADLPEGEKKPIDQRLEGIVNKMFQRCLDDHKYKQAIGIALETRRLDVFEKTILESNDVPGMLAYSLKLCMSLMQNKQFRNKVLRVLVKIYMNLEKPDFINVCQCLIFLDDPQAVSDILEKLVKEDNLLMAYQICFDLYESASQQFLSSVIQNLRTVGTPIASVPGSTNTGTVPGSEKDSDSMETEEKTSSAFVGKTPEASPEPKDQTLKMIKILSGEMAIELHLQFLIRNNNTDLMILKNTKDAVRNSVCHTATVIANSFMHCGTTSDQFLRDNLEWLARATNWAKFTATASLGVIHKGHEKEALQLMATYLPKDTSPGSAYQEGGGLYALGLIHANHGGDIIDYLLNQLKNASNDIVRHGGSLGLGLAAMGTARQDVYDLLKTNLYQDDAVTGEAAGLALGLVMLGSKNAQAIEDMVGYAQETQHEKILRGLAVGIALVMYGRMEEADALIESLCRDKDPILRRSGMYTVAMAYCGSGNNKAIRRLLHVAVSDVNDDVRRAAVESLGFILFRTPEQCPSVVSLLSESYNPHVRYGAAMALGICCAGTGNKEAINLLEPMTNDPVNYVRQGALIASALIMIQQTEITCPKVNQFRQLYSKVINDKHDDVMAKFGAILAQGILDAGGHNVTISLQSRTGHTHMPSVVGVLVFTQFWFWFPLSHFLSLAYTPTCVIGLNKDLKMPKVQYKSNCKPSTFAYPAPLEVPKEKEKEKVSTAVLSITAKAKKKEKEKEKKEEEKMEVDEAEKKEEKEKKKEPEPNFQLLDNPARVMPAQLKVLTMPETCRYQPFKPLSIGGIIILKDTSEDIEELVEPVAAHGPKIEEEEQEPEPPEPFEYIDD
# UniProt Q9H7Z7: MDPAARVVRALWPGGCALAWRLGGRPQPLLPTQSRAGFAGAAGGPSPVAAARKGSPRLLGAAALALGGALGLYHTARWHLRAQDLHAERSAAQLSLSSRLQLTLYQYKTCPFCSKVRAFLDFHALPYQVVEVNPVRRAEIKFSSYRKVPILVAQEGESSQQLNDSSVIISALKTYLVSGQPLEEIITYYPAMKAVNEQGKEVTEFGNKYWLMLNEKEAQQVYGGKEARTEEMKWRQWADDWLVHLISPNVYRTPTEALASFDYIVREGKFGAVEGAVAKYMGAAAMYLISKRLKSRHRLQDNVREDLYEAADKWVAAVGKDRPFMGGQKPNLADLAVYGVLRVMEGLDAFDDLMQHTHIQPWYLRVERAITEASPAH
# UniProt P78330: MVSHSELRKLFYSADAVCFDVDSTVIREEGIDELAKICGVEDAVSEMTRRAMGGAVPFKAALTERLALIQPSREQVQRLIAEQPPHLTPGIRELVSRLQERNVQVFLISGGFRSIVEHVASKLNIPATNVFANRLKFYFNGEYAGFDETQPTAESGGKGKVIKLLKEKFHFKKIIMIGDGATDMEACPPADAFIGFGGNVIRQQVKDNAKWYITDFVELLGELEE
# Compound: Nc1nc2c(ncn2[C@@H]2O[C@H](COP(=O)(O)OP(=O)(O)OP(=O)(O)O)[C@@H](O)[C@H]2O)c(=O)[nH]1
# Test: dose-dependent thermal stabilisation call (2D-TPP, DLPTP, 10% FDR) (binary (1 = stabilised)); higher = stabilised by the compound
# Conditions: system: Jurkat gel-filtered lysate; concentration range 1-500 µM
# Procedure: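 2D thermal proteome profiling in gel-filtered Jurkat E6.1 lysate (2 mg/ml) treated with NaGTP (0, 1, 10, 100, 500 uM) for 10 min at room temperature, then heated 3 min at one of 12 temperatures (42-63.9 C). Soluble protein was quantified by TMT10 MS. The value is the DLPTP call of the paper: dose-dependent thermal stabilisation over all temperatures at 10% FDR (F-test of a dose-response against a flat model); one experiment, one call per tested protein.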
row,Target,dose-dependent thermal stabilisation call
1,RBM6 (UniProt P78332),inactive: 0
2,RBBP9 (UniProt O75884),inactive: 0
3,RAB24 (UniProt Q969Q5),inactive: 0
4,RAB2A (UniProt P61019),inactive: 0
5,PSMA4 (UniProt P25789),inactive: 0
6,PSMC2 (UniProt P35998),inactive: 0
7,PSMG4 (UniProt Q5JS54),inactive: 0
8,RBBP6 (UniProt Q7Z6E9),inactive: 0
9,RASAL3 (UniProt Q86YV0),inactive: 0
10,PRPF31 (UniProt Q8WWY3),active: 1
11,PSMC5 (UniProt P62195),inactive: 0
12,RBM39 (UniProt Q14498),inactive: 0
13,RAB2B (UniProt Q8WUD1),active: 1
14,PRPS2 (UniProt P11908),inactive: 0
15,PYROXD1 (UniProt Q8WU10),inactive: 0
16,QKI (UniProt Q96PU8),inactive: 0
17,UniProt Q6ZT62,inactive: 0
18,PSMB8 (UniProt P28062),inactive: 0
19,RAD23B (UniProt P54727),inactive: 0
20,RCHY1 (UniProt Q96PM5),inactive: 0

row,Target,dose-dependent thermal stabilisation call
1,PTPRC (UniProt P08575),inactive: 0
2,PTGR2 (UniProt Q8N8N7),inactive: 0
3,RBM12 (UniProt Q9NTZ6),inactive: 0
4,RAE1 (UniProt P78406),inactive: 0
5,QDPR (UniProt P09417),inactive: 0
6,RBMS1 (UniProt P29558),active: 1
7,QPRT (UniProt Q15274),inactive: 0
8,PRIM1 (UniProt P49642),inactive: 0
9,RAB6A (UniProt P20340),active: 1
10,RALY (UniProt Q9UKM9),inactive: 0
11,RAB10 (UniProt P61026),active: 1
12,RAC3 (UniProt P60763),inactive: 0
13,PRKAR1A (UniProt P10644),active: 1
14,RAPGEF1 (UniProt Q13905),inactive: 0
15,PSMD1 (UniProt Q99460),active: 1
16,PTGES2 (UniProt Q9H7Z7),inactive: 0
17,PSME4 (UniProt Q14997),inactive: 0
18,RABEPK (UniProt Q7Z6M1),inactive: 0
19,PRKCI (UniProt P41743),inactive: 0
20,PSPH (UniProt P78330),inactive: 0

# Reformatted with bars between the fields: part of the list above
row | Target | dose-dependent thermal stabilisation call
10 | PRPF31 (UniProt Q8WWY3) | active: 1
11 | PSMC5 (UniProt P62195) | inactive: 0
12 | RBM39 (UniProt Q14498) | inactive: 0
13 | RAB2B (UniProt Q8WUD1) | active: 1
14 | PRPS2 (UniProt P11908) | inactive: 0
15 | PYROXD1 (UniProt Q8WU10) | inactive: 0
16 | QKI (UniProt Q96PU8) | inactive: 0
17 | UniProt Q6ZT62 | inactive: 0
18 | PSMB8 (UniProt P28062) | inactive: 0
19 | RAD23B (UniProt P54727) | inactive: 0
20 | RCHY1 (UniProt Q96PM5) | inactive: 0
1 | PTPRC (UniProt P08575) | inactive: 0
